Laboratory results from the supplement of paper PMC10849652.
This is one part of the list.

Protein sequences, listed by entry. Tags and fused reporters are not part of them. Lines headed by an entry give the natural chain unless they say otherwise; changes in a name come on top.
UniProt P80404: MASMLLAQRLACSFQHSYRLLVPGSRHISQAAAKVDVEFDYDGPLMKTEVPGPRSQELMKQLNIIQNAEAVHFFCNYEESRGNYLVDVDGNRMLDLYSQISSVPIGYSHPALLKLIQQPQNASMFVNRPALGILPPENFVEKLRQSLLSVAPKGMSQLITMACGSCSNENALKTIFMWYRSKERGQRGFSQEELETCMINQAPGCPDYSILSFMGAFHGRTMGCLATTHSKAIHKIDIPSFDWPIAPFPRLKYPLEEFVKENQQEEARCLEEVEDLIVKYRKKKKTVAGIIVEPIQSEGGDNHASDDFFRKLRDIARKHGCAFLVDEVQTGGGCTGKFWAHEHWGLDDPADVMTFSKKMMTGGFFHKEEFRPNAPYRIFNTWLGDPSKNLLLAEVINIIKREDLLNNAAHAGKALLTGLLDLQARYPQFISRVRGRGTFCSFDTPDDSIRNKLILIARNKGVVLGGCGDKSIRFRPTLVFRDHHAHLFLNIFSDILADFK
UniProt Q9BUJ0: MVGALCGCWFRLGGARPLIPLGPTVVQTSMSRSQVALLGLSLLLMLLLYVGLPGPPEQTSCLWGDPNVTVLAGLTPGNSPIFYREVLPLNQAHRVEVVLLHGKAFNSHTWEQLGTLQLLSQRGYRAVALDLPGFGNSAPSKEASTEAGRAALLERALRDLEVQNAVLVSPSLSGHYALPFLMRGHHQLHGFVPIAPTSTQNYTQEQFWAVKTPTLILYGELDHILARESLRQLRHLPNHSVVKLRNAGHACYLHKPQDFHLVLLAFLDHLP
UniProt Q76LX8: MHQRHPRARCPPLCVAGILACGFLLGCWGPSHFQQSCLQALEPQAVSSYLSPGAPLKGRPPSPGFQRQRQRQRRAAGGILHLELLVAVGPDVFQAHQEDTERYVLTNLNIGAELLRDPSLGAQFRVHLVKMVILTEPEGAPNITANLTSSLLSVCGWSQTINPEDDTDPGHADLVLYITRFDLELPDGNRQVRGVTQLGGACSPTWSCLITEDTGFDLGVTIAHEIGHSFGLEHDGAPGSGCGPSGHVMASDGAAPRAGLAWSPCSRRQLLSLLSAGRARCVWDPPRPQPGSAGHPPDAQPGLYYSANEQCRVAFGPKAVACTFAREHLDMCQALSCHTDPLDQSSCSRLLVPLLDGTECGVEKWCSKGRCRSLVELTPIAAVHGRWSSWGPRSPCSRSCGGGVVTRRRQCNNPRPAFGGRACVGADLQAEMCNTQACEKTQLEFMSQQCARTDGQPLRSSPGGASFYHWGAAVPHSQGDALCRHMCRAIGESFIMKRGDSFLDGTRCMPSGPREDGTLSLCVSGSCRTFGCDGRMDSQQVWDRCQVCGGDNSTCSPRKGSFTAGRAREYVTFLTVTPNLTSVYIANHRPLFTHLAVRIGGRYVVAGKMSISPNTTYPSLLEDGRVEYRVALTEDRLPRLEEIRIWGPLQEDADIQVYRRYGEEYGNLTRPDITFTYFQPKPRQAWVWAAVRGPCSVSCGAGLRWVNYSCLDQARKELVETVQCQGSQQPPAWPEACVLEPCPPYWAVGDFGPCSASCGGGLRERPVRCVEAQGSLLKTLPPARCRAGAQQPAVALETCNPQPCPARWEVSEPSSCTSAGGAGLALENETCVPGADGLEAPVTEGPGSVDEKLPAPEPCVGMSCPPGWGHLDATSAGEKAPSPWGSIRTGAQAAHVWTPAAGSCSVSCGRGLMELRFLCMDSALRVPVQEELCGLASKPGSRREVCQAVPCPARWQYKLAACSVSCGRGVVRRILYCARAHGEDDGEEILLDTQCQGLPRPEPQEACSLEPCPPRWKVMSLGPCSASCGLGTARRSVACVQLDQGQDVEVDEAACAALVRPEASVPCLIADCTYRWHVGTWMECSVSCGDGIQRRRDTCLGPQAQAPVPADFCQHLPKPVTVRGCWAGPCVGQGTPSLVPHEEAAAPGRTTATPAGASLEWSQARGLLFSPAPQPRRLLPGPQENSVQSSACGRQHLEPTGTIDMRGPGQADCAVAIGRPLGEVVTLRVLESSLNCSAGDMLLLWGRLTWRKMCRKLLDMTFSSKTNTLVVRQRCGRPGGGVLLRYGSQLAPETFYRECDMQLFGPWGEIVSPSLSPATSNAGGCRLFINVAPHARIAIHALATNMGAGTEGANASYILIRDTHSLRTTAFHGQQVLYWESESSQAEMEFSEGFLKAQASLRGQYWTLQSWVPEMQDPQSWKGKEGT
UniProt O95342, whole entry, looked up: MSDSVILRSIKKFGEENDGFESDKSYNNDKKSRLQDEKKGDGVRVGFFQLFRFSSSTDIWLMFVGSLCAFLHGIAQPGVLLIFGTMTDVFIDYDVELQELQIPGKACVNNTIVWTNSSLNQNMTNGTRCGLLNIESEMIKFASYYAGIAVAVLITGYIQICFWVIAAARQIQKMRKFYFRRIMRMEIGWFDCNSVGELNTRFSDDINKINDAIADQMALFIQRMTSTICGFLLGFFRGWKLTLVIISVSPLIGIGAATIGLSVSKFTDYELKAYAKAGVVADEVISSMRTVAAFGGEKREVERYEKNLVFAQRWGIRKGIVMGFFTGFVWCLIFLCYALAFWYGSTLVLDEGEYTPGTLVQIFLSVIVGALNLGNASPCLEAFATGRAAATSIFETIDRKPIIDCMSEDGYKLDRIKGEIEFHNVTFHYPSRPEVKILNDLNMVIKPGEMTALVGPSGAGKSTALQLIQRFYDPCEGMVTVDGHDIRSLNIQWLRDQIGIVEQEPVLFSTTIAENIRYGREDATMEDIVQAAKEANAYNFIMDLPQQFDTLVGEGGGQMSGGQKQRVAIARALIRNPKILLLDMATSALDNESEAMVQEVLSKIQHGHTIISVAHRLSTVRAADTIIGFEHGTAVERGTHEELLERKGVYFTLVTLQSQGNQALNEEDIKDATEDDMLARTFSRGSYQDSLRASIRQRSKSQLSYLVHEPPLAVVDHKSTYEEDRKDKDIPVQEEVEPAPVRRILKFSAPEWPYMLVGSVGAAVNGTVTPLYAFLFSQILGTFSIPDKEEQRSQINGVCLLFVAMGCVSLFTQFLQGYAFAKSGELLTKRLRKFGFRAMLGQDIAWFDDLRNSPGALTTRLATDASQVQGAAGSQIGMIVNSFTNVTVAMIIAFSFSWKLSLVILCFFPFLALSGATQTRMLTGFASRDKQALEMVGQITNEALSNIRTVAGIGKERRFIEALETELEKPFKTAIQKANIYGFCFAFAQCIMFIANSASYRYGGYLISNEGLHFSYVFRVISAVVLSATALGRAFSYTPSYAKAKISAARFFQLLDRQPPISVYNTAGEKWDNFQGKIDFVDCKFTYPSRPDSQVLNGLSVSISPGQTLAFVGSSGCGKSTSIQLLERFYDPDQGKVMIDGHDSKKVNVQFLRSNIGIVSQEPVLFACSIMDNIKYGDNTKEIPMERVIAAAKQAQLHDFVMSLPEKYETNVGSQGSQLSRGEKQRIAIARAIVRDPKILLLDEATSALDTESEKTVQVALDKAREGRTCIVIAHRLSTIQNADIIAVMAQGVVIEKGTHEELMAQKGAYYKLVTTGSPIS
UniProt Q8NFV4: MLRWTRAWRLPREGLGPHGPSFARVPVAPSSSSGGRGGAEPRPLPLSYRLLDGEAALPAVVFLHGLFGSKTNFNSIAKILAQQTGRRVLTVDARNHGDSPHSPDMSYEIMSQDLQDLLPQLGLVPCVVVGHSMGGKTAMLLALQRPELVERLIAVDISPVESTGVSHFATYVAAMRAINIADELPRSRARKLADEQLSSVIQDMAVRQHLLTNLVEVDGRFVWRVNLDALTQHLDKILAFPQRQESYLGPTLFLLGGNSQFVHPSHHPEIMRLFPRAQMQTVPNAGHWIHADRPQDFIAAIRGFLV
UniProt Q9BV23: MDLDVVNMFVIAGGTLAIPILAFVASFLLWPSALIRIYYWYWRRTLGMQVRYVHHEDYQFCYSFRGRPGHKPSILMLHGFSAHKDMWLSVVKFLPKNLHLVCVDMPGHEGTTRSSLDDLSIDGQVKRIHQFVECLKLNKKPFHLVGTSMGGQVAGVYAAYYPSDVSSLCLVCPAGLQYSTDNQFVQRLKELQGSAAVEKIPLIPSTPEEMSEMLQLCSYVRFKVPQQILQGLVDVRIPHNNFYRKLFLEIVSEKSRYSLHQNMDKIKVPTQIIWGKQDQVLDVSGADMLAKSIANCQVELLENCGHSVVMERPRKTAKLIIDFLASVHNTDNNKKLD
UniProt P78325: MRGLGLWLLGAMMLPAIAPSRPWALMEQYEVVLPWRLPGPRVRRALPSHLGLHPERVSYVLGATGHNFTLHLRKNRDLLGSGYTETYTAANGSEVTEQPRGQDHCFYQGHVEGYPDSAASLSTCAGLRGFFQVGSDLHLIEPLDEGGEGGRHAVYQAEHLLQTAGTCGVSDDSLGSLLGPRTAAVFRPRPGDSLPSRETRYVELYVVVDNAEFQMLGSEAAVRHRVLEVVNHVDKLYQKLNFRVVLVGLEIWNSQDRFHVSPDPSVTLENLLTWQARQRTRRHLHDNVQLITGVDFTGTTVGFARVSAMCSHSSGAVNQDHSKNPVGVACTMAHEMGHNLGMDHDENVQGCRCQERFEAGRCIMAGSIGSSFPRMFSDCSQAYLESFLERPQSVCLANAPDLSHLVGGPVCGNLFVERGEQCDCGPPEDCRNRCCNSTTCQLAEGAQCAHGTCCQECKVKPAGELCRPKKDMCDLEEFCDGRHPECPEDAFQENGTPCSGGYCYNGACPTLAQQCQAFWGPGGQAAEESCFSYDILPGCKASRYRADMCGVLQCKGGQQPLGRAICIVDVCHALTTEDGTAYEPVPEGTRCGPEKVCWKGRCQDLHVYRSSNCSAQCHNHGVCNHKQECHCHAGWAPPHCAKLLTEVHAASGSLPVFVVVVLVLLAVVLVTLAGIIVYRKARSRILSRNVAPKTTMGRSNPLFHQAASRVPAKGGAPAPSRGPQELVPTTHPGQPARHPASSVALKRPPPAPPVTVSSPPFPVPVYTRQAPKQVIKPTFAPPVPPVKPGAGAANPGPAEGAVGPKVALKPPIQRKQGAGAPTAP
UniProt P28330: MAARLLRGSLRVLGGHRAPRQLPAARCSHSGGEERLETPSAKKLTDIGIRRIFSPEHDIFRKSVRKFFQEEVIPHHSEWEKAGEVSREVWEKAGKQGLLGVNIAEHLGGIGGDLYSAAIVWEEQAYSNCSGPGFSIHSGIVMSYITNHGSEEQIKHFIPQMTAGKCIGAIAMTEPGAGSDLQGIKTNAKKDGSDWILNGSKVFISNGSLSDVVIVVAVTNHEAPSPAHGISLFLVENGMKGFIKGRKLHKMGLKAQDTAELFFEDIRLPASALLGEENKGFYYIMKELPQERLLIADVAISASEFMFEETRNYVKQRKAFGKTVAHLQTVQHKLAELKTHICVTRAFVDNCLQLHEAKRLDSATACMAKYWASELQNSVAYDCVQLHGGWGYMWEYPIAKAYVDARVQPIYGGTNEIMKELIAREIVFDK
UniProt Q4L235: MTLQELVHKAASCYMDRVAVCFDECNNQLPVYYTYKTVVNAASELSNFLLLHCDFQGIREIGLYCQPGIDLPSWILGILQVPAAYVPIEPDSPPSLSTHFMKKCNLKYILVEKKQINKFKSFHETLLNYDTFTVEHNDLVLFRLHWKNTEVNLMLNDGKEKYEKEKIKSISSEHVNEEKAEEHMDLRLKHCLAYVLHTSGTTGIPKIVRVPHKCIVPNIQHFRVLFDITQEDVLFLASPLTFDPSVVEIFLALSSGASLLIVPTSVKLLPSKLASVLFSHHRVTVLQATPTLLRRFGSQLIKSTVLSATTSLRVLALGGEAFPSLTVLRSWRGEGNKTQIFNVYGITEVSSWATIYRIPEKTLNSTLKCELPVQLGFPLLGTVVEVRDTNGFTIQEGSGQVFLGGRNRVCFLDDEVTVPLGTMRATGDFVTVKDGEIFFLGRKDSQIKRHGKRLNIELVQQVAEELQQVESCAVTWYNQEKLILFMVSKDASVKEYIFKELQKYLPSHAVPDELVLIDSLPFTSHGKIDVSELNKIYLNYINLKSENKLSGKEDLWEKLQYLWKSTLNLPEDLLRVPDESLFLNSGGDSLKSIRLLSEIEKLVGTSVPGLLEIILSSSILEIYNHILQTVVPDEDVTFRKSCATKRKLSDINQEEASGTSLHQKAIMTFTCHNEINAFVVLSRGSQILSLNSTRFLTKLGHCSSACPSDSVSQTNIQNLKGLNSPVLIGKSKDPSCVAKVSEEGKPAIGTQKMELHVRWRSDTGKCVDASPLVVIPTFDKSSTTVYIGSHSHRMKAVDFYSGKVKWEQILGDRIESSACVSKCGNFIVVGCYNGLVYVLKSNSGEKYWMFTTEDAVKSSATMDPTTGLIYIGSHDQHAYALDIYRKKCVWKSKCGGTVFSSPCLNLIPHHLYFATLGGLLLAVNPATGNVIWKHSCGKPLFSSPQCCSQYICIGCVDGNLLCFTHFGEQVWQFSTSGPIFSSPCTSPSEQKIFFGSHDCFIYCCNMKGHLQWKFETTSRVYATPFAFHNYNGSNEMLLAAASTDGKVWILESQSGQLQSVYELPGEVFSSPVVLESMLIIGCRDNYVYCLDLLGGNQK

What was measured:
Test in all cases: log2 fold change, soluble protein after heating vs DMSO (PISA); higher = thermal stabilisation; K562 cells, 10 uM, 30 min; active = over 0.2 and 3.5 SD of the protein, either way, in both replicates (recomputed)
[1] = compound: NC(=O)c1cnc(N[C@@H]2CCCC[C@@H]2N)nc1Nc1cccc(-n2nccn2)c1
Outline: (§1)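 Values are thermal stability changes relative to control samples and are taken from duplicates. They are stated as log2 fold changes. Before quantification by TMTpro 16plex LC-MS/MS with equalised channel sums, K562 cells at 2×10^6 cells/mL were treated with 10 μM compound for 30 min, heated in aliquots for 3 min across 48°C-58°C, pooled, extracted in PBS with 0.5% NP-40 at 4°C, and centrifuged at 21,000xg for 90 min to give the soluble supernatant.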

[2] = compound: NCC(=O)Nc1ccc(-n2nc(C(F)(F)F)cc2-c2ccc3c(ccc4ccccc43)c2)cc1
Outline: as §1

vorinostat = compound: O=C(CCCCCCC(=O)Nc1ccccc1)NO [vorinostat]
Outline: as §1

[3] = compound: O=C1NC(=O)C(c2cnc3ccccn23)=C1c1cn2c3c(cc(F)cc13)CN(C(=O)N1CCCCC1)CC2
Outline: as §1

[4] = compound: NC(=O)Nc1cc(-c2cccc(F)c2)sc1C(=O)N[C@H]1CCCNC1
Outline: as §1

entinostat = compound: Nc1ccccc1NC(=O)c1ccc(CNC(=O)OCc2cccnc2)cc1 [entinostat]
Outline: as §1

citarinostat = compound: O=C(CCCCCCNC(=O)c1cnc(N(c2ccccc2)c2ccccc2Cl)nc1)NO [citarinostat]
Outline: as §1

[5] = compound: c1cc(OCCN2CCCCC2)cc(-c2n[nH]c3ccc(-c4nnc[nH]4)cc23)c1
Outline: as §1

entospletinib = compound: c1cn2cc(-c3ccc4cn[nH]c4c3)nc(Nc3ccc(N4CCOCC4)cc3)c2n1 [entospletinib]
Outline: as §1

[6] = compound: NC1(c2ccc(-c3nc4ccn5c(=O)[nH]nc5c4cc3-c3ccccc3)cc2)CCC1
Outline: as §1

silmitasertib = compound: O=C(O)c1ccc2c(c1)nc(Nc1cccc(Cl)c1)c1ccncc12 [silmitasertib]
Outline: as §1

Measured: log2 fold change

ACTRT1 (UniProt Q8TDG2)
inactive: [1] -0.188 | [2] -0.176 | vorinostat -0.116 | [3] -0.13

ABAT (UniProt P80404)
inactive: [3] 0.067

ABCF1 (UniProt Q5STZ8)
inactive: [1] 0.039 | [2] 0

ABHD4 (UniProt Q8TB40)
inactive: [3] -0.356

ABHD14A (UniProt Q9BUJ0)
inactive: [4] -0.309 | entinostat -0.136

ABHD5 (UniProt Q8WTS1)
inactive: [4] 0.015 | [1] 0.033 | entinostat 0.047 | citarinostat 0.102 | [5] -0.072 | entospletinib 0.121

ABCA2 isoform 3 (UniProt Q9BZC7)
inactive: [4] -0.64 | entinostat -0.272 | citarinostat -0.308 | [5] -0.095 | entospletinib 0.241

ADAMTS13 (UniProt Q76LX8)
inactive: [4] -0.058 | [1] -0.039 | entinostat -0.253 | citarinostat -0.028 | [3] 0.154 | [5] 0.192 | entospletinib 0.264

ACTG1 (UniProt I3L4N8)
inactive: [6] 0.099 | citarinostat 0.029 | silmitasertib -0.067 | [5] 0.073 | entospletinib 0.092

ACOT7 (UniProt K7EKP8)
inactive: [1] -0.016

ABCB11 (UniProt O95342)
inactive: [4] -0.139 | [6] -0.03 | entinostat -0.038 | silmitasertib 0.065

AACS (UniProt Q86V21)
inactive: [3] 0.197

ACSL6 isoform 1 (UniProt Q9UKU0)
inactive: [4] 0.061 | [6] -0.152 | [2] -0.174 | entinostat -0.056 | vorinostat 0.048 | silmitasertib -0.077 | [3] -0.421

ABHD17B (UniProt Q5VST6)
inactive: [1] 0.105 | [6] -0.059 | [2] 0.058 | vorinostat 0.003 | citarinostat -0.059 | silmitasertib 0 | [3] -0.003 | [5] -0.05 | entospletinib 0.099

ABCA7 (UniProt Q8IZY2)
inactive: [4] -0.112 | [1] -0.245 | entinostat -0.157 | vorinostat -0.095 | citarinostat 0.085 | [3] 0.034 | [5] -0.144 | entospletinib -0.065

Reprinted at random: 2 entries already listed, in no set order.
ABCA7 (UniProt Q8IZY2)
inactive: [4] -0.112 | [1] -0.245 | entinostat -0.157 | vorinostat -0.095 | citarinostat 0.085 | [3] 0.034 | [5] -0.144 | entospletinib -0.065

AACS (UniProt Q86V21)
inactive: [3] 0.197

(further entries)

ABCB1 (UniProt P08183)
inactive: [1] -0.05 | [6] 0.054 | citarinostat -0.115 | silmitasertib 0.003 | [5] 0.097 | entospletinib -0.215

ABCC10 (UniProt Q5T3U5)
inactive: [4] -0.089 | [1] -0.1 | [2] -0.219 | entinostat 0.015 | vorinostat -0.097 | [3] -0.07

ACYP2 (UniProt P14621)
inactive: [4] -0.06 | [6] 0.031 | [2] 0.052 | entinostat 0.11 | citarinostat -0.301 | silmitasertib -0.06 | [5] -0.15 | entospletinib 0.273

ADAD1 (UniProt Q96M93)
inactive: [6] -0.144 | [2] -0.174 | vorinostat -0.065 | citarinostat 0.06 | silmitasertib 0.203 | [5] -0.004 | entospletinib -0.119

ACOX1 isoform 3 (UniProt Q15067)
inactive: [2] -0.124

ABHD11 (UniProt Q8NFV4)
inactive: [1] -0.089 | [6] -0.139 | [2] 0.016 | vorinostat -0.042 | citarinostat 0.058 | silmitasertib -0.021 | [3] -0.159 | [5] -0.009

ABHD6 (UniProt Q9BV23)
inactive: [4] -0.447 | entinostat -0.036 | vorinostat -0.121 | citarinostat -0.199 | [5] -0.054 | entospletinib 0.212

AARSD1 (UniProt Q9BTE6)
inactive: [1] -0.066 | [6] -0.048 | citarinostat 0.144 | silmitasertib 0.137 | [5] 0.066

ADAM8 (UniProt P78325)
inactive: [3] -0.106

ACBD7 (UniProt Q8N6N7)
inactive: vorinostat -0.081 | citarinostat -0.008 | [5] -0.074 | entospletinib 0.065

ACTC1 (UniProt P68032)
inactive: citarinostat 0.276 | [5] -0.151 | entospletinib 0.009

ACSF2 isoform 2 (UniProt Q96CM8)
inactive: vorinostat -0.026

ACAD10 isoform 5 (UniProt Q6JQN1)
inactive: [1] -0.132 | [2] 0.005

ACADL (UniProt P28330)
inactive: [4] 0.074 | entinostat 0.134

AASDH (UniProt Q4L235)
inactive: [4] -0.044 | [6] -0.12 | [2] -0.166 | entinostat 0.007 | vorinostat 0.051 | silmitasertib 0.036 | [3] -0.064

ABCB4 (UniProt P21439)
inactive: [1] -0.202 | [6] -0.209 | [2] -0.198 | citarinostat 0.017 | silmitasertib 0.16 | [5] -0.095 | entospletinib 0.013
